Measurements as given in article PMC5996148.
Where “and” joins values, the source holds several entries; their conditions need not be identical. Equal values may be shown once. The list shows a part of the results. For some assays here: The exact form of the protein is not confirmed.

Legend:
Test in all cases: protein microarray (ProtoArray v5.0), streptavidin-Alexa Fluor 647
Settings in all cases: 3'-biotin; 20 mM Tris (pH 7.5), 5 mM MgCl2, 100 mM KCl, 0.1% Tween-20, A/T-rich and random oligonucleotide blockers; temperature not stated; high values mean tight binding
[1] = system: TMEM25 (human)
[2] = system: TMEM41A (human)
[3] = system: TMEM98 (human)
[4] = system: TNFAIP8 (human)
[5] = system: TNFSF15 (human)
[6] = system: TNNC1 (human)
[7] = system: TNS1 (human)
[8] = system: TOM1-like protein 2 (human)
[9] = biological target: T1, TP53I3 (UniProt Q53FA7)
T1 sequence: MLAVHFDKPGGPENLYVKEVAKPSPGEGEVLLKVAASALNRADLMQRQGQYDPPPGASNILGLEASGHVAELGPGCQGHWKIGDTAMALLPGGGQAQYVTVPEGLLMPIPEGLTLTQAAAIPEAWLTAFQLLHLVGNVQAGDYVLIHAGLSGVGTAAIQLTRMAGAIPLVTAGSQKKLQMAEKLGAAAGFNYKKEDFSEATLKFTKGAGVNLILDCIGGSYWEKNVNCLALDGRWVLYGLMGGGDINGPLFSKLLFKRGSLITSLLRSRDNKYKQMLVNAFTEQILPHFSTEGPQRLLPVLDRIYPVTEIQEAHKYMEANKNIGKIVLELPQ

[10] = system: TPM1 (human)
[11] = system: TPM3 (human)
[12] = system: TPM4 (human)
[13] = system: TPP1 (human)
[14] = system: TPT1 (human)
[15] = system: TRA16 (human)
[16] = system: TRAPPC3 (human)
[17] = system: TRBV5-4 (human)
[18] = system: TRIM11 (human)
[19] = biological target: T2, TRIM31 (UniProt Q9BZY9)
T2 sequence: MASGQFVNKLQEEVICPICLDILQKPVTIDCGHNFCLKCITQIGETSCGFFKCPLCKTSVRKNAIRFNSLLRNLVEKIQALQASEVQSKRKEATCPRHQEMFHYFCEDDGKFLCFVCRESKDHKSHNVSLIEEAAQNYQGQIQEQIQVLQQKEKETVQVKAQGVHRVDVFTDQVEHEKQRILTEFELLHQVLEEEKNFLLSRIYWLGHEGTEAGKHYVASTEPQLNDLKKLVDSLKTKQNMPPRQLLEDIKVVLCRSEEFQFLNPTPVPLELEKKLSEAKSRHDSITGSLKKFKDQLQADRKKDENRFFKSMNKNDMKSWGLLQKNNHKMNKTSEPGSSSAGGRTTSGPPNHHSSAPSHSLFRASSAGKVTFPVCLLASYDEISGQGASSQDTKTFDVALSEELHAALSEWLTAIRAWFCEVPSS

[20] = system: TRIM32 (human)

GGGGACAGGGGTATGGGGAGGGG [G4-3 biotinylated (CtG)]
binding signal [1]: -0.336 z-score
binding signal [2]: -0.316 z-score
binding signal [3]: -0.318 z-score
binding signal [4]: -0.329 z-score
binding signal [5]: -0.322 z-score
binding signal [6]: -0.306 z-score
binding signal [7]: -0.298 z-score
binding signal [8]: -0.343 z-score
binding signal [9]: 3.36 z-score
binding signal [10]: -0.316 z-score
binding signal [11]: -0.338 z-score and -0.331 z-score
binding signal [12]: -0.319 z-score
binding signal [13]: -0.33 z-score
binding signal [14]: -0.334 z-score
binding signal [15]: -0.33 z-score
binding signal [16]: -0.331 z-score
binding signal [17]: -0.318 z-score
binding signal [18]: -0.336 z-score
binding signal [19]: -0.314 z-score
binding signal [20]: -0.308 z-score
